The text below walks through data of paper doi:10.1101/2024.05.22.594599.

In assay [1] the target is T1, Hakai (human (endogenous in SU.86.86 and PANC-1)) (UniProt Q75N03).
T1 sequence: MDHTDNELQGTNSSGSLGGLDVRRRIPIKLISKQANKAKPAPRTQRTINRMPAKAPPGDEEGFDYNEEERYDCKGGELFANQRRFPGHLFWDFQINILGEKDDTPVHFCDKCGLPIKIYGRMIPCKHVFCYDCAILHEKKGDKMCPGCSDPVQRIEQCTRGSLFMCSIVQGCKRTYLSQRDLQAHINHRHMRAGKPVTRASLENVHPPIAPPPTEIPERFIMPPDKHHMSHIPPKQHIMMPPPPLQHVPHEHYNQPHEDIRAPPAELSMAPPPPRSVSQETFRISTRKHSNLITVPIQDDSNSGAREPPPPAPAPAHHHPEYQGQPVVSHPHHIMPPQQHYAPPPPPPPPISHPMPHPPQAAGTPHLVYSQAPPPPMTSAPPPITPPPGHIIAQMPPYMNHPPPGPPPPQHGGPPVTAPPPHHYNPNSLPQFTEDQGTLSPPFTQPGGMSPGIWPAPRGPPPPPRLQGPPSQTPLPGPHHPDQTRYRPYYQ
Description: co-IP.

In assay [2] the target is E-cadherin (human (endogenous in SU.86.86 and PANC-1)). Description: co-IP.

Results are given in words; binding and its absence hold for the method and conditions named. Binding seen in cells or lysates may run through a third protein. A result given as binding can be weak or reduced; the word gives no strength.

For E-cadherin, the binding entry in assay [1] is on record as “binds”.

B1: Hakai (protein, UniProt Q75N03 1-491)
chain: T1 sequence
With B1, the binding result in assay [2] is on record as “binds”.
